Results deposited as PubChem BioAssay AID1259308 (NCATS, 2017)
Screen: 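Genes whose loss raises luciferase production in HEK293 cells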 (primary screen). System: human HEK293 embryonic kidney cells stably expressing firefly luciferase (HEK-CMV-Luc2-Hygro). Reagents: single siRNA against human genes, 0.8 pmol siRNA per well. Timing: 72 h. Read-out: 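Luciferase light (ONE-Glo) measured on one replicate plate set and viability (CellTiter-Glo) on the other, scaled to a negative control siRNA, with robust z-scores and luciferase per cell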. Direction: total luciferase, z-score and total luciferase, % of control: higher = more reporter protein produced; luciferase per cell, z-score: higher = more reporter output per viable cell; viable cells, % of control: higher = more viable cells. Call rule: 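An siRNA counts as active if its total luciferase robust z-score exceeds 3; genes with two or more such siRNAs out of three were retested with fresh siRNAs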. Calls: active = raised luciferase; inactive = no rise.
In all, the deposit lists about 59,000 reagents; shown is a part drawn at random. About 1,510 of them (2.6%) were called active. 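Calls use total luciferase alone and ignore viability, so some active siRNAs may act by altering cell number.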 Unmarked entries are inactive. The numbers tell different reagents against one gene apart.

total luciferase, z-score	total luciferase, % of control	luciferase per cell, z-score	viable cells, % of control	target	reagent
-1.01	61.8	-0.0836	70.6	COX8C	1
-0.141	79.1	-0.567	103	COX8C	2
-0.441	73.1	-0.499	93.2	COX8C	3
1.5	112	0.991	96.1	CFAP52	1
-0.191	78.1	-0.0519	88.5	CFAP52	2
0.785	97.5	0.297	101	CFAP52	3
-1.67	48.6	-1.83	87.9	ZSCAN20	1
-1.08	60.4	0.291	62.5	ZSCAN20	2
-0.515	71.7	-0.227	85	ZSCAN20	3
1.63	114	1.85	78.5	ZBTB37	1
0.23	86.5	0.423	86.4	ZBTB37	2
-0.577	70.4	-0.44	88.4	ZBTB37	3
-0.348	75	-1.11	112	TMEM165	1
0.932	100	0.441	99.9	TMEM165	2
0.161	85.1	1.26	68.2	TMEM165	3
-0.612	69.7	1	59.8	CLCF1	1
-0.0825	80.2	-0.267	96.2	CLCF1	2
-0.894	64.1	-0.288	77.3	CLCF1	3
-1.33	55.4	-1.21	85	TOM1L2	1
-1.67	48.6	-1.54	81.6	TOM1L2	2
-1.11	59.8	-0.311	72.5	TOM1L2	3
-0.969	62.6	-1.2	95.8	KRT31	1
0.751	96.8	0.0441	107	KRT31	2
-0.0382	81.1	-0.559	105	KRT31	3
1.78	117	1.95	78.5	GON4L	1
0.0203	82.3	0.107	89.4	GON4L	2
3.17 (active)	145	3.23	69.2	GON4L	3
-0.43	73.3	-0.609	96.2	IMPG2	1
0.376	89.4	0.299	92.3	IMPG2	2
0.106	84	-0.0399	94.8	IMPG2	3
-0.166	78.6	1.11	65.6	HMGN2P46	1
2.86	139	3.52	61.4	HMGN2P46	2
0.000512	81.9	-0.565	106	HMGN2P46	3
0.621	94.2	-0.0561	107	FOLH1	1
0.263	87.1	0.271	90.6	FOLH1	2
1.04	103	1.24	82.7	FOLH1	3
1.33	108	0.473	107	UBR4	1
1.02	102	0.321	105	UBR4	2
-0.0882	80.1	-0.598	105	UBR4	3
-0.508	71.8	-1.06	106	PRR5	1
-1.19	58.1	1.51	43.7	PRR5	2
-0.139	79.1	0.272	82.3	PRR5	3
-0.765	66.7	-0.458	84.1	FOXL3-OT1	1
0.00118	81.9	-0.103	94	FOXL3-OT1	2
-0.468	72.6	-0.395	90	FOXL3-OT1	3
-1.39	54.2	-2.05	104	KRT40	1
1.86	119	1.83	82.1	KRT40	2
1.3	108	1.63	78.4	KRT40	3
-0.741	67.1	-1.54	113	SLC12A1	1
-0.917	63.6	-0.583	82.9	SLC12A1	2
-0.816	65.7	-1.05	96.7	SLC12A1	3
0.153	84.9	-0.285	102	EFNB2	1
-0.158	78.8	-0.428	98.5	EFNB2	2
0.608	94	0.598	89.7	EFNB2	3
-0.684	68.3	-0.716	92.1	BTBD6	1
0.0819	83.5	-0.2	98.4	BTBD6	2
-0.518	71.6	0.333	73.3	BTBD6	3

An excerpt from above, showing only “viable cells, % of control”.
COX8C #1: 70.6
COX8C #2: 103
COX8C #3: 93.2
CFAP52 #1: 96.1
CFAP52 #2: 88.5
CFAP52 #3: 101
ZSCAN20 #1: 87.9
ZSCAN20 #2: 62.5
